In publication PMC4558565:
These are yes or no findings as the source states them, for the method shown. Binding seen in cells or lysates may run through a third protein. Here binding means that the protein was enriched with, or labelled near, the bait; the list need not be complete. Sequences can lack the tags named with a protein.

By UniProt entry, the sequences of proteins in these tests, tags left out.
UniProt Q42479: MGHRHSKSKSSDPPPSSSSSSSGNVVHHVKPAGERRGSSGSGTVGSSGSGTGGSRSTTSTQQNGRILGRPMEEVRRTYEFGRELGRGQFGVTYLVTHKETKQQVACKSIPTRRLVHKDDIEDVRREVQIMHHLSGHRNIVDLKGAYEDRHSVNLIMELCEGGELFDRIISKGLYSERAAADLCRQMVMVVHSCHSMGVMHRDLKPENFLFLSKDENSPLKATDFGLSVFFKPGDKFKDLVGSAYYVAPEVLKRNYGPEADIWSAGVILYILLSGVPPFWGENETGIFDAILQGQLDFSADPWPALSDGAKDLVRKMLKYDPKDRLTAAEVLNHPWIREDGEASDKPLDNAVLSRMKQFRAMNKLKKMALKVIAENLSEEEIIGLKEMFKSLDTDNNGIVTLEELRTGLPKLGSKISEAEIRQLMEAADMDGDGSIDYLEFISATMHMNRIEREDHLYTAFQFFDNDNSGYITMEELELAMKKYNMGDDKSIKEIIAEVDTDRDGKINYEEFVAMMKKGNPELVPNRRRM

T1: GST-tagged bZIP63 (Arabidopsis thaliana) (UniProt B9DGI8)
T1 sequence: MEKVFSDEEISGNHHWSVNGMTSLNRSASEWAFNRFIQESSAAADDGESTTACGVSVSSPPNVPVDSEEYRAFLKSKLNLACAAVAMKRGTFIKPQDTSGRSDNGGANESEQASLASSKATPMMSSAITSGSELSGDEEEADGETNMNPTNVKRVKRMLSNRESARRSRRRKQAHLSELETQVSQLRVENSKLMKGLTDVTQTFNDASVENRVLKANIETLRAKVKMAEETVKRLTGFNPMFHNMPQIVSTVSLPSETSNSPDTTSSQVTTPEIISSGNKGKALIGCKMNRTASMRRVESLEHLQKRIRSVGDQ


Target: T1, GST-tagged bZIP63 (Arabidopsis thaliana)
Test: affinity purification with mass spectrometry; GST-bZIP63 from E. coli lysate held on a GSTrap FF column; total root protein in protein extraction buffer (25 mM TrisCl, 15 mM EGTA, 10 mM MgCl2, 75 mM NaCl, 0.1% Tween20, pH 7.5) loaded; eluted with increasing salt; gel bands at the MW of the in-gel kinase signals cut, trypsin, LC-MS/MS; four independent experiments; only the target purified

Row | Molecule | binding
1 | CPK3, calcium dependent protein kinase (from UniProt Q42479 1-529) (enzyme) | binds
2 | SNF4, regulatory subunit of SnRK1 (protein, UniProt Q944A6 1-487) MFGSTLDSSRGNSAASGQLLTPTRFVWPYGGRRVFLSGSFTRWTEHVPMSPLEGCPTVFQVICNLTPGYHQYKFFVDGEWRHDEHQPFVSGNGGVVNTIFITGPDMVPAGFSPETLGRSNMDVDDVFLRTADPSQEAVPRMSGVDLELSRHRISVLLSTRTAYELLPESGKVIALDVNLPVKQAFHILYEQGIPLAPLWDFGKGQFVGVLGPLDFILILRELGTHGSNLTEEELETHTIAAWKEGKAHISRQYDGSGRPYPRPLVQVGPYDNLKDVALKILQNKVAAVPVIYSSLQDGSYPQLLHLASLSGILKCICRYFRHSSSSLPILQQPICSIPLGTWVPRIGESSSKPLATLRPHASLGSALALLVQAEVSSIPVVDDNDSLIDIYSRSDITALAKDKAYAQIHLDDMTVHQALQLGQDASPPYGIFNGQRCHMCLRSDSLVKVMERLANPGVRRLVIVEAGSKRVEGIISLSDVFQFLLGL | binds
3 | CKA1, catalytic subunit of casein kinase II (CKII) (enzyme, UniProt Q08467 37-409) PILRSSIVTPTARAVSEVSGCTTIDPDFLVEISDSNQTRAMSKARVYTEVNVIRPKDYWDYESLIVQWGEQDDYEVVRKVGRGKYSEVFEGINVNSKEKCIIKILKPVKKKKIRREIKILQNLCGGPNIVKLLDVVRDQHSKTPSLIFEYVNSTDFKVLYPTLTDYDIRYYIYELLKALDFCHSQGIMHRDVKPHNVMIDHELRKLRLIDWGLAEFYHPGKEYNVRVASRYFKGPELLVDLQDYDYSLDMWSLGCMFAGMIFRKEPFFYGHDNQDQLVKIAKVLGTDELNAYLNKYQLELDPQLEALVGRHSRKPWSKFINADNQHLVSPEAIDFLDKLLRYDHQDRLTAKEAMAHAYFAQVRAAETSRMRSQ | binds
4 | Casein kinase 1-like protein 2 (CKL2) (enzyme, UniProt Q9CAI5 1-465) MEPRVGNKFRLGRKIGGGSFGEIYLGTNIQTNEEVAIKLENVKTKHPQLLYESKLYKVLQGGTGVPNVKWYGVEGDYNVLVIDLLGPSLEDLFNFCSRKLSLKTVLMLADQMINRIEFVHQKSFLHRDIKPDNFLMGLGRRANQVYVIDFGLAKKYRDSNHQHIPYRENKNLTGTARYASMNTHLGIEQSRRDDLESLGFVLMYFLKGSLPWQGLKAGNKKQKYEKISEKKVSTSIEALCRGYPSEFASYFHYCRSLRFDDKPDYAYLKRLFRDLFIREGFQFDYVFDWTILKYQQSQISTPPPRHHGPVVGPSSALPPAITSAERPSGGDEARPSGWSSGIPRRNSGQIFNSGSLAKQKAPVSSDPAISKDVVLSSSSFLRATGSSRRAAVSSSREAAVLGTDSEPSNPQIVEAGSGSNSKIPVSRNSPIVSSEINKLSSPSRATTSVMKNYEANLKGIESLHF | binds
5 | AKIN11, catalytic subunit of SnRK1 (enzyme, UniProt P92958 1-512) MDHSSNRFGNNGVESILPNYKLGKTLGIGSFGKVKIAEHVVTGHKVAIKILNRRKIKNMEMEEKVRREIKILRLFMHPHIIRQYEVIETTSDIYVVMEYVKSGELFDYIVEKGRLQEDEARNFFQQIISGVEYCHRNMVVHRDLKPENLLLDSRCNIKIADFGLSNVMRDGHFLKTSCGSPNYAAPEVISGKLYAGPEVDVWSCGVILYALLCGTLPFDDENIPNLFKKIKGGIYTLPSHLSSEARDLIPRMLIVDPVKRITIPEIRQHRWFQTHLPRYLAVSPPDTVEQAKKINEEIVQEVVNMGFDRNQVLESLRNRTQNDATVTYYLLLDNRFRVPSGYLESEFQETTDSGSNPMRTPEAGASPVGHWIPAHVDHYGLGARSQVPVDRKWALGLQSHAHPREIMNEVLKALQELNVCWKKIGHYNMKCRWVPGLADGQNTMVNNQLHFRDESSIIEDDCAMTSPTVIKFELQLYKAREEKYLLDIQRVNGPQFLFLDLCAAFLTELRVI | binds

Results, then the molecule that gave them:

Row | binding | Molecule
6 | binds | CKA2, catalytic subunit of casein kinase II (CKII) (enzyme, UniProt Q08466 32-403) LIPPLTCVNTGTVESDVTGIRFDRCLDTDSLAKISLSTVMSKARVYTDVNVIRPKDYWDYESLNVQWGEQDDYEVVRKVGRGKYSEVFEGINMNNNEKCIIKILKPVKKKKIRREIKILQNLCGGPNIVKLLDVVRDQHSKTPSLIFEYVNSTDFKVLYPTLTDYDIRYYIYELLKALDFCHSQGIMHRDVKPHNVMIDHELRKLRLIDWGLAEFYHPGKEYNVRVASRYFKGPELLVDLQDYDYSLDMWSLGCMFAGMIFRKEPFFYGHDNQDQLVKIAKVLGTDELNAYLNKYQLELDTQLEALVGRHSRKPWSKFINADNRHLVSPEAIDYLDKLLRYDHQDRLTAKEAMAHPYFAQVRAAESSRMRTQ
7 | binds | CKB1, regulatory subunit of casein kinase II (CKII) (protein, UniProt P40228 1-287) MYRDRGTVNSRPEVVDRKRINDALERPSPSTSRQVNGKGKGTVTAATTTANLIGKQQSNNINHRDSRSASLSKNNTVSDDESDTDSEESDVSGSDGEDTSWISWFCNLRGNEFFCEVDDDYIQDDFNLCGLSSLVPYYEYALDLILDVESSQGEMFTEEQNELIESAAEMLYGLIHARYILTSKGLAAMLDKYKNYDFGRCPRVYCCGQPCLPVGQSDLPRSSTVKIYCPKCEDIYYPRSKYQGNIDGAYFGTTFPHLFLMTYGHLKPAKATQNYVQRVFGFKLHKP
8 | binds | AKIN10, catalytic subunit of SnRK1 (enzyme, UniProt Q38997 1-512) MDGSGTGSRSGVESILPNYKLGRTLGIGSFGRVKIAEHALTGHKVAIKILNRRKIKNMEMEEKVRREIKILRLFMHPHIIRLYEVIETPTDIYLVMEYVNSGELFDYIVEKGRLQEDEARNFFQQIISGVEYCHRNMVVHRDLKPENLLLDSKCNVKIADFGLSNIMRDGHFLKTSCGSPNYAAPEVISGKLYAGPEVDVWSCGVILYALLCGTLPFDDENIPNLFKKIKGGIYTLPSHLSPGARDLIPRMLVVDPMKRVTIPEIRQHPWFQAHLPRYLAVPPPDTVQQAKKIDEEILQEVINMGFDRNHLIESLRNRTQNDGTVTYYLILDNRFRASSGYLGAEFQETMEGTPRMHPAESVASPVSHRLPGLMEYQGVGLRSQYPVERKWALGLQSRAHPREIMTEVLKALQDLNVCWKKIGHYNMKCRWVPNSSADGMLSNSMHDNNYFGDESSIIENEAAVKSPNVVKFEIQLYKTRDDKYLLDLQRVQGPQFLFLDLCAAFLAQLRVL
